Assay results from article PMC9950491.
No constants are given. Whether binding was seen depends on the method and setting. In cells and extracts the contact can be indirect. Some binding calls cover weakened binding; strength is not graded here. Each block holds one substance with its values, some of them ahead of it.

The chains behind the UniProt entries cited, without tags or fusion partners. Residues count along the entry.
UniProt A8C756: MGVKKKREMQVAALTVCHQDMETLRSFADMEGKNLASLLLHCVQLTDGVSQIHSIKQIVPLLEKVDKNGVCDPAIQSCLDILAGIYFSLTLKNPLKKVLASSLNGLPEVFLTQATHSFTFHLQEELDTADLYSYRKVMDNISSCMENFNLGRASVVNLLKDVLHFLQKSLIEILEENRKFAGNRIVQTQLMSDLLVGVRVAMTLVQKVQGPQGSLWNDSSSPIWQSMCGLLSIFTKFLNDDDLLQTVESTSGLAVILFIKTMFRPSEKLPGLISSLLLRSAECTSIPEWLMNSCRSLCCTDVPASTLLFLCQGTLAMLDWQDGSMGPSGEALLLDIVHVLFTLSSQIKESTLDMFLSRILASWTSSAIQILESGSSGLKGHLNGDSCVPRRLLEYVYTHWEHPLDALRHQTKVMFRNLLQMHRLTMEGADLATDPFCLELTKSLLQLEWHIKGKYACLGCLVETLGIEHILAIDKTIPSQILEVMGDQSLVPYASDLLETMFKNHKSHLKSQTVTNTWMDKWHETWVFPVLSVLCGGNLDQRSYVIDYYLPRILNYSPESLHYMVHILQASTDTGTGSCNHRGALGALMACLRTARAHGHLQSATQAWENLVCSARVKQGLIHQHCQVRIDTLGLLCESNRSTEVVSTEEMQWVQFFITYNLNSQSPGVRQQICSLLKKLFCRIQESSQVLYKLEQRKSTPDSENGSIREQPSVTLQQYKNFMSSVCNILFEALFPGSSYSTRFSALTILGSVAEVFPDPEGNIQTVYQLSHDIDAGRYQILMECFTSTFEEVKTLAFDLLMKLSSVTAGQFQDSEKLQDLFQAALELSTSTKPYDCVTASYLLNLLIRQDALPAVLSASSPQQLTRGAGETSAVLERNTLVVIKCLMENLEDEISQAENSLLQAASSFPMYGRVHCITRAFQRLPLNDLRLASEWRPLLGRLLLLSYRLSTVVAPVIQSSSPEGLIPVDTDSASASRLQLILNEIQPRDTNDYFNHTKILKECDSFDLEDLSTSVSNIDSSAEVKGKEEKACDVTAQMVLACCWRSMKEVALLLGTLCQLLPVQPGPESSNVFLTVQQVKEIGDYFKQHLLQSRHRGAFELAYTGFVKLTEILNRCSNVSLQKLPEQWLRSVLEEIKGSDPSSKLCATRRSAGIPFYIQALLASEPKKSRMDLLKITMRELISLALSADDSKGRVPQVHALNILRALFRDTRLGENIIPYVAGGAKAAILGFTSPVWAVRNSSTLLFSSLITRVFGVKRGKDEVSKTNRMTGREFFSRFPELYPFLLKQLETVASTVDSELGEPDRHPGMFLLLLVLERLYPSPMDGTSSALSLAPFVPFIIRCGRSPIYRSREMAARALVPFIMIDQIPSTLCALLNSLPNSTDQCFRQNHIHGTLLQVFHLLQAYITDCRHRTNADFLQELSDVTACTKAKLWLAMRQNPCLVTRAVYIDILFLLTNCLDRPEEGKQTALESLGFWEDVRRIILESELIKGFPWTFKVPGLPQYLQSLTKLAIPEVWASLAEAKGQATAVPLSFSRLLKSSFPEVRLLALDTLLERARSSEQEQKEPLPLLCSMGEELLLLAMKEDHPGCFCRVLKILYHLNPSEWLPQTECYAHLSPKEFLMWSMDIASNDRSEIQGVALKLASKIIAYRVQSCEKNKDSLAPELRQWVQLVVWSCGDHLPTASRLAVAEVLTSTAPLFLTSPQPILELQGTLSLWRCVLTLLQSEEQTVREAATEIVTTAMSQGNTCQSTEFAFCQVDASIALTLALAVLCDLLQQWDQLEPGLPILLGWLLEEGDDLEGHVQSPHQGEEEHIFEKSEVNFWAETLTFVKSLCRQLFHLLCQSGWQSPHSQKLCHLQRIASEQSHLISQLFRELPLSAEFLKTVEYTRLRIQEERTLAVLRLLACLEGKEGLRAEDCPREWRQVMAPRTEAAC
UniProt Q13158: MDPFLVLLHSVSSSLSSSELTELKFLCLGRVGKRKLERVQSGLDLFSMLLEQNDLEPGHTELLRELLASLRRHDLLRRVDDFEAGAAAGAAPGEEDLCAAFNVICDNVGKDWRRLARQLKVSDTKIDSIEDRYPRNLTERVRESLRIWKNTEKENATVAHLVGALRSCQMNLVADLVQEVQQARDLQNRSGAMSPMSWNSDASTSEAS
UniProt O14763, residues 56-440: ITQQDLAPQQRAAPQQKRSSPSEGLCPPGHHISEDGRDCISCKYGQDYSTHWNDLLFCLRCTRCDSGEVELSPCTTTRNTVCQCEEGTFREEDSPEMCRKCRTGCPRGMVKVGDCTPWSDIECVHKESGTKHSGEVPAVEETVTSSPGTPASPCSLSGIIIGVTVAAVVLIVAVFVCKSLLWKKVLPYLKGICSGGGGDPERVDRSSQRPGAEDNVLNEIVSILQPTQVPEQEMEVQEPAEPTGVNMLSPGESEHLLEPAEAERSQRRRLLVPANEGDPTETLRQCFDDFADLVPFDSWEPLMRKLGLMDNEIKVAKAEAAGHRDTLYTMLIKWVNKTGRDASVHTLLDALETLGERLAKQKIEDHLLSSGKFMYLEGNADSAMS
UniProt O55143: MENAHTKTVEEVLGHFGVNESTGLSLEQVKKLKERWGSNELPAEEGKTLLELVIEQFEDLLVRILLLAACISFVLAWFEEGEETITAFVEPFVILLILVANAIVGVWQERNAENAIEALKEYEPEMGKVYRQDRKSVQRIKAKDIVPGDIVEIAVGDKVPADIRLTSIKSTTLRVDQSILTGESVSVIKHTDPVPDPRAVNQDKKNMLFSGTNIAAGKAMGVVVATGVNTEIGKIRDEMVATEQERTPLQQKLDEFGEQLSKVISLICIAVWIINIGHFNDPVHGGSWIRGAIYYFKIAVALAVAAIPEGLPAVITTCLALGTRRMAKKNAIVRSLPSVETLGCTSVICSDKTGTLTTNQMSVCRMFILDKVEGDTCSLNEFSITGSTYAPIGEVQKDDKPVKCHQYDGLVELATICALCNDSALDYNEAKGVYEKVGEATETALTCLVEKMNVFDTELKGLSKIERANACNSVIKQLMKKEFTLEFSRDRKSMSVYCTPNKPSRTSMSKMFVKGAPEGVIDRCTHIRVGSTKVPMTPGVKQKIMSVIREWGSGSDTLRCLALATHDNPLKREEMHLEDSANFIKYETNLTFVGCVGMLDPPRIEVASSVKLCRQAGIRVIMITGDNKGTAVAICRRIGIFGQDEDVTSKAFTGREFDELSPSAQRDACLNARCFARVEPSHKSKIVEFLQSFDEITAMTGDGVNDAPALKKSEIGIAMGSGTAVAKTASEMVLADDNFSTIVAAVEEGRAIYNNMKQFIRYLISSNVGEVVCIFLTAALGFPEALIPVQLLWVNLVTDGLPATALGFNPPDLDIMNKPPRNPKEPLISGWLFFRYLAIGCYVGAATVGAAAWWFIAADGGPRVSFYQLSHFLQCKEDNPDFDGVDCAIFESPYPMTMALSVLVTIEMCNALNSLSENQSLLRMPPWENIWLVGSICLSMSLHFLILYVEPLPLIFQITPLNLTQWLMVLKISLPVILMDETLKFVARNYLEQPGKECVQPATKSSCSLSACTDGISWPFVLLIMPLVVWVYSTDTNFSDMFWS
UniProt Q6YHU6: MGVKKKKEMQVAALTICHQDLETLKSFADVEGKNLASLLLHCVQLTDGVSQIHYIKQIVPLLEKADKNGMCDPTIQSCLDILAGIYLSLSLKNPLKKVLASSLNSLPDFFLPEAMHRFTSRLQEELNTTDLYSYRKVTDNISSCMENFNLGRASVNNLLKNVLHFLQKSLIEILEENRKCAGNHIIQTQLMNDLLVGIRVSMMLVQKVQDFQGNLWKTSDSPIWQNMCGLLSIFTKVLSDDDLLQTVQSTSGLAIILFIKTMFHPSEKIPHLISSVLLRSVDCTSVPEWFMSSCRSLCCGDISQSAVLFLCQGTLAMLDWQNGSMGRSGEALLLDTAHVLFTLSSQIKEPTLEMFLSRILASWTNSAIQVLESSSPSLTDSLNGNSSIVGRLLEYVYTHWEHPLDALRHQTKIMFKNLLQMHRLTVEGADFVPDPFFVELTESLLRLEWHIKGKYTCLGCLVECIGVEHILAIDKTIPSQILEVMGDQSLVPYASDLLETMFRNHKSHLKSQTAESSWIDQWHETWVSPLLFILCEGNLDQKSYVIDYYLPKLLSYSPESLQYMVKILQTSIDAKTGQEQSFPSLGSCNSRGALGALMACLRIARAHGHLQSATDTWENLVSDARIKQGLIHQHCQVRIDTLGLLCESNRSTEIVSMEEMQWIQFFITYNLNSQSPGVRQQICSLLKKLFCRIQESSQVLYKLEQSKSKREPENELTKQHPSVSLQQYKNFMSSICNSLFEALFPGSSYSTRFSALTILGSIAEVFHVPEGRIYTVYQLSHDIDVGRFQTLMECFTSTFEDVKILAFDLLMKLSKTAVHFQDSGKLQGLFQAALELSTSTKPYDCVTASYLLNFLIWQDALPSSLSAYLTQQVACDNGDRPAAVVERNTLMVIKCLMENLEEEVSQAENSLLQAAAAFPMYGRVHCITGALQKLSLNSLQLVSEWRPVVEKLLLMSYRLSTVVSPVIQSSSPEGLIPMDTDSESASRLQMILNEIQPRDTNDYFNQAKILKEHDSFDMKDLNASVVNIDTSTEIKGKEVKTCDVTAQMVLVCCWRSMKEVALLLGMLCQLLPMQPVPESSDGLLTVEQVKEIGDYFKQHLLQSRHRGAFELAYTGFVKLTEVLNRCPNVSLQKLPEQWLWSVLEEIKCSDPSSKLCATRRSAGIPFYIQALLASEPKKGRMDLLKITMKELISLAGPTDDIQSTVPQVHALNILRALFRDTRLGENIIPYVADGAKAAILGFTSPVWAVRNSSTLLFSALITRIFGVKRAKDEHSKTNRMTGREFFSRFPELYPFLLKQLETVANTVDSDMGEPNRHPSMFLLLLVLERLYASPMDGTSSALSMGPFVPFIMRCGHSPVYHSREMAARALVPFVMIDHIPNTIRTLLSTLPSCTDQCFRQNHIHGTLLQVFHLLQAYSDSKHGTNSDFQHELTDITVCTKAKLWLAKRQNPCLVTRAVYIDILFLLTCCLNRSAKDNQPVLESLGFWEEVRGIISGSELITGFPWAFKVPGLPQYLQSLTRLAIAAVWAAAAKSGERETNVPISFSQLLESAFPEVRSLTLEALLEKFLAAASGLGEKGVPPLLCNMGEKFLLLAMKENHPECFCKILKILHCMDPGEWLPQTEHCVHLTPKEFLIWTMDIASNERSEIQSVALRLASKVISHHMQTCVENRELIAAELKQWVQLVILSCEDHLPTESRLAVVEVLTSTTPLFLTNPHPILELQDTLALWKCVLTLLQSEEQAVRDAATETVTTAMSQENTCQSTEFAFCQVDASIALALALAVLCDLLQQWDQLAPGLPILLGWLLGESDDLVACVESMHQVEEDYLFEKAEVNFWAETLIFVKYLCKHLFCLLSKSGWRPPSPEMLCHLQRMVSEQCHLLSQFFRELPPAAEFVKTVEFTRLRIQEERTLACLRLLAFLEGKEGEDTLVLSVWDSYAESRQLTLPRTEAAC

How the values were obtained:
[1] = molecular target: Thyroid Adenoma Associated (THADA), mouse (mouse (endogenous in MIN6)) (UniProt A8C756); experiment: co-IP; endogenous proteins in MIN6 beta-cell lysates (RIPA buffer); antibody 2 h, then Protein A/G Plus agarose overnight at 4 °C; IgG as negative control; western blot; cells untreated (SERCA2, RyR) or treated with 1 uM thapsigargin for 24 h (FADD, caspase-8; Fig. 6h also untreated, control and Thada-SAM cells)
[2] = molecular target: Fas-associated death domain (FADD), human (human (endogenous in HeLa)) (UniProt Q13158); experiment: co-IP; endogenous proteins in lysates of HeLa cells under thapsigargin-induced ER stress; antibody 2 h, then Protein A/G Plus agarose overnight at 4 °C; western blot
[3] = molecular target: death receptor 5 (DR5), human (human (endogenous in HeLa)) (UniProt O14763); experiment: as above
[4] = molecular target: SERCA2 (Sarco/Endoplasmic Reticulum Ca2+-ATPase 2), mouse (mouse (endogenous in MIN6)) (UniProt O55143); experiment: proximity ligation; DuoLink PLA in MIN6 beta-cell line on chamber slides; THADA with anti-rabbit PLUS probe, SERCA2/RyR with anti-mouse MINUS probe; confocal microscopy
[5] = molecular target: T1, Fas-associated death domain (FADD), mouse (mouse (endogenous in MIN6)) (UniProt Q61160); experiment: co-IP; endogenous proteins in MIN6 beta-cell lysates (RIPA buffer); antibody 2 h, then Protein A/G Plus agarose overnight at 4 °C; IgG as negative control; western blot; cells untreated (SERCA2, RyR) or treated with 1 uM thapsigargin for 24 h (FADD, caspase-8; Fig. 6h also untreated, control and Thada-SAM cells)
T1 sequence: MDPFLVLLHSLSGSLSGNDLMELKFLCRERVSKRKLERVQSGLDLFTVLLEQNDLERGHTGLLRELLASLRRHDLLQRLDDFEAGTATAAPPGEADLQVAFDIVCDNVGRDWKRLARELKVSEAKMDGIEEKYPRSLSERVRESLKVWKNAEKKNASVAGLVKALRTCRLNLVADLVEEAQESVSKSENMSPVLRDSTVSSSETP

[6] = molecular target: SERCA2 (Sarco/Endoplasmic Reticulum Ca2+-ATPase 2), mouse (mouse (endogenous in MIN6)) (UniProt O55143); experiment: as above
[7] = molecular target: T2, caspase-8, mouse (mouse (endogenous in MIN6)) (UniProt O89110); experiment: as above
T2 sequence: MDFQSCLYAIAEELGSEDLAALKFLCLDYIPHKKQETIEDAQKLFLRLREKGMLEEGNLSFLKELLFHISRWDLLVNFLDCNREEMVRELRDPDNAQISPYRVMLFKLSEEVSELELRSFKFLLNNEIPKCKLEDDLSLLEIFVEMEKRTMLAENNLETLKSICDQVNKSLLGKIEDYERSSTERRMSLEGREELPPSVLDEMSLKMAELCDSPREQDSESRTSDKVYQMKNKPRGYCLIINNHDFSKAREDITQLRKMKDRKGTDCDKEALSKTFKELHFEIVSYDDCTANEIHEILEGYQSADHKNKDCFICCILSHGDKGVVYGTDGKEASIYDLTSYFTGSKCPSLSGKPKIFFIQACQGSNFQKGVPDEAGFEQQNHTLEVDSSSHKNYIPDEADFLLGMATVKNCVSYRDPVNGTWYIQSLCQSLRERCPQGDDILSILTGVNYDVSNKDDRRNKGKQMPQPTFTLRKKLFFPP

Substance: Fas-associated death domain (FADD), mouse (from UniProt Q61160 1-205)
binding [1]: binds

Substance: Thyroid Adenoma Associated (THADA), human (from UniProt Q6YHU6 1-1953)
binding [2]: binds | binding [3]: binds

binding [4]: binds | binding [6]: binds | binding [7]: binds
Substance: Thyroid Adenoma Associated (THADA), mouse (from UniProt A8C756 1-1938)
binding [5]: binds
